The record followed here is patent publication US20070054846A1, “Bcl-w structure and uses therefor” (priority 2002, published 2007).

These are yes or no findings as the source states them, for the method shown. Binding calls can cover weak binding; strength is not graded here. Tags and fused reporters may be left off the sequences shown.

This test concerns the target BH3. Put plainly: summary table; neither the assay nor the BH3-only partner is named on the sheet.

B1: FLAG Bcl-w (full-length, expressed in 293T cells) (protein, not shown: small tags and cut ends)
chain: MATPASAPDTRALVADFVGYKLRQKGYVCGAGPGEGPAADPLHQAMRAAGDEFETRFRRTFSDLAAQLHVTPGSAQQRFTQVSDELFQGGPNWGRLVAFFVFGAALCAESVNKEMEPLVGQVQEWMVAYLETRLADWIHSSGGWAEFTALYGDGALEEARRLREGNWASVRTVLTGAVALGALVTVGAFFASK
Consider B1, for which the binding entry was “binds”.

B2: FLAG Bcl-wΔC23 (protein, not shown: small tags and cut ends)
chain: MATPASAPDTRALVADFVGYKLRQKGYVCGAGPGEGPAADPLHQAMRAAGDEFETRFRRTFSDLAAQLHVTPGSAQQRFTQVSDELFQGGPNWGRLVAFFVFGAALCAESVNKEMEPLVGQVQEWMVAYLETRLADWIHSSGGWAEFTALYGDGALEEARRLREGNWASV
Take B2: the binding entry was “binds”.

B3: FLAG Bcl-wΔC29 (protein, not shown: small tags and cut ends)
chain: MATPASAPDTRALVADFVGYKLRQKGYVCGAGPGEGPAADPLHQAMRAAGDEFETRFRRTFSDLAAQLHVTPGSAQQRFTQVSDELFQGGPNWGRLVAFFVFGAALCAESVNKEMEPLVGQVQEWMVAYLETRLADWIHSSGGWAEFTALYGDGALEEARRLRE
Turning to B3, the binding entry is “binds”.
